# Experimental data: the supplement of paper PMC8728848
# The other results are listed elsewhere or left out.
# B1: Erv41-EDTA (Saccharomyces cerevisiae), Q04651 (protein)
# chain: MKFLVNVALVFMVVYISYIYAAAPEHHHHHHDYDIPTTENLYFQGAMGYIDQQYVVDSQVRDTVQINMDIYVNTKCDWLQINVRDQTMDRKLVLEELQLEEMPFFIPYDTKVNDINEIITPELDEILGEAIPAEFREKLDTRSFFDESDPNKAHLPEFNGCHVFGSIPVNRVSGELQITAKSLGYVASRKAPLEELKFNHVINEFSFGDFYPYIDNPLDNTAQFNQDEPLTTYVYYTSVVPTLFKKLGAEVDTNQYSVNDYRYLYKDVAAKGDKMPGIFFKYNFEPLSIVVSDVRL
# Tests used:
# Assay in all cases: glycan array binding signal (z-score within array); higher = stronger binding
# Details in all cases: glycan notation: IUPAC condensed, linker removed
# [1] = target: Gal(b1-4)GlcNAc(b1-6)Gal(b1-4)GlcNAc
# Method in brief: (§1)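 Glycan array data were curated from 3228 arrays in the Consortium for Functional Glycomics database and kept only where the protein sequence was available. Glycan names were converted to IUPAC-condensed notation, and columns mapping to the same glycan were averaged. The binding signal is a within-array Z-score, averaged across arrays of the same protein sequence at different concentrations or buffers and across linkers. Negative Z-scores can be read as non-binding.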
# [2] = target: Gal(b1-4)GlcNAc(b1-6)GalNAc
# Method in brief: as §1
# [3] = target: Gal(b1-4)GlcNAc(b1-6)[Gal(b1-3)]GalNAc
# Method in brief: as §1
# [4] = target: Gal(b1-4)GlcNAc(b1-6)[Gal(b1-4)GlcNAc(b1-3)]GalNAc
# Method in brief: as §1
# [5] = target: Gal(b1-4)GlcNAc6P
# Method in brief: as §1
# [6] = target: Gal(b1-6)Gal
# Method in brief: as §1
# [7] = target: Gal3S(b1-3)GalNAc
# Method in brief: as §1
# [8] = target: Gal3S(b1-3)GlcNAc
# Method in brief: as §1
# [9] = target: Gal3S(b1-3)[Fuc(a1-4)]GlcNAc
# Method in brief: as §1
# [10] = target: Gal3S(b1-4)Glc
# Method in brief: as §1
# [11] = target: Gal3S(b1-4)Glc6S
# Method in brief: as §1
# [12] = target: Gal3S(b1-4)GlcNAc
# Method in brief: as §1
# [13] = target: Gal3S(b1-4)[Fuc(a1-3)]Glc6S
# Method in brief: as §1
# [14] = target: Gal3S(b1-4)[Fuc(a1-3)]GlcNAc
# Method in brief: as §1
# [15] = target: Gal3S(b1-4)[Fuc(a1-3)]GlcNAc6S
# Method in brief: as §1
# [16] = target: Gal3S4S(b1-4)GlcNAc
# Method in brief: as §1
# [17] = target: Gal3S6S(b1-4)GlcNAc
# Method in brief: as §1
# [18] = target: Gal3S6S(b1-4)GlcNAc6S
# Method in brief: as §1
# [19] = target: Gal4S(b1-4)GlcNAc
# Method in brief: as §1
# [20] = target: Gal4S6S(b1-4)GlcNAc
# Method in brief: as §1
# [21] = target: Gal6P(b1-4)GlcNAc
# Method in brief: as §1
# [22] = target: Gal6S(b1-3)GlcNAc
# Method in brief: as §1
# [23] = target: Gal6S(b1-3)GlcNAc6S
# Method in brief: as §1
binder,measurement,setting,value
B1,glycan array binding signal (z-score),[1],-0.545
same,glycan array binding signal (z-score),[2],1.98
same,glycan array binding signal (z-score),[3],-0.095
same,glycan array binding signal (z-score),[4],-0.147
same,glycan array binding signal (z-score),[5],-0.278
same,glycan array binding signal (z-score),[6],0.242
same,glycan array binding signal (z-score),[7],0.809
same,glycan array binding signal (z-score),[8],0.781
same,glycan array binding signal (z-score),[9],-0.344
same,glycan array binding signal (z-score),[10],0.725
same,glycan array binding signal (z-score),[11],-0.519
same,glycan array binding signal (z-score),[12],0.355
same,glycan array binding signal (z-score),[13],1.48
same,glycan array binding signal (z-score),[14],1.03
same,glycan array binding signal (z-score),[15],1.08
same,glycan array binding signal (z-score),[16],-0.921
same,glycan array binding signal (z-score),[17],1.06
same,glycan array binding signal (z-score),[18],0.638
same,glycan array binding signal (z-score),[19],-0.173
same,glycan array binding signal (z-score),[20],-0.636
same,glycan array binding signal (z-score),[21],-0.304
same,glycan array binding signal (z-score),[22],-1.14
same,glycan array binding signal (z-score),[23],-0.494

# Reformatted bar-delimited: part of the list above
binder | measurement | setting | value
B1 | glycan array binding signal (z-score) | [1] | -0.545
same | glycan array binding signal (z-score) | [2] | 1.98
